Laboratory results as given in paper doi:10.1101/2025.10.10.681672.
No constants are given. Whether binding was seen depends on the method and setting. In cells and extracts the contact can be indirect. Some binding calls cover weakened binding; strength is not graded here. Sequences can lack the tags named with a protein.

Protein sequences, listed by entry. Tags and fused reporters are not part of them.
UniProt P18431: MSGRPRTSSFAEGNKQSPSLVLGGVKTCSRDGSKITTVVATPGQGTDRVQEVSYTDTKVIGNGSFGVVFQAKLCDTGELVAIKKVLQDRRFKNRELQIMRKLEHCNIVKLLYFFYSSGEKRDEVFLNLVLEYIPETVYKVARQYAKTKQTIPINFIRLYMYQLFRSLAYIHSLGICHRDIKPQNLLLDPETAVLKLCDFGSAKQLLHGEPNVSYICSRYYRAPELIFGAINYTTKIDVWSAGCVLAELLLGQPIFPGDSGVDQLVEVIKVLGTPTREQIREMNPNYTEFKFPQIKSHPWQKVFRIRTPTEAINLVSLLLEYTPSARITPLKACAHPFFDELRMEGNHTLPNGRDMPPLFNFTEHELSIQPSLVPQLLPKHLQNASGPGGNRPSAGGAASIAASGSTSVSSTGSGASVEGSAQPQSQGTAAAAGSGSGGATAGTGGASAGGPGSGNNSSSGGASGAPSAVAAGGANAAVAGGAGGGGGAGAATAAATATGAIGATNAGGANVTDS

Target: T1, GFP-Hnf4[178–493] (Drosophila melanogaster) (UniProt P49866)
T1 sequence: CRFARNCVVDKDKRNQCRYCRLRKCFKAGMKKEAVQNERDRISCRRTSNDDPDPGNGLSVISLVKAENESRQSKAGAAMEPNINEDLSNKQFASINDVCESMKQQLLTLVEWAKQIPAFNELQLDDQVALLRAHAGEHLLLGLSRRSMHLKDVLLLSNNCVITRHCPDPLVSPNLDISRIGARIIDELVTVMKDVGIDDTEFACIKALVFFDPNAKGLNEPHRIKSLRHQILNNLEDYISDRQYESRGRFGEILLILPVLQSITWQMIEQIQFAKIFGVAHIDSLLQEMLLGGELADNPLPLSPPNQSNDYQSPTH
Assay: co-IP; S2R+ cells co-transfected; CHAPS lysis buffer; GFP-tagged protein immunoprecipitated with anti-GFP nanobody on ALFA-tag magnetic resin overnight at 4°C; western blot

Q: Which binding does the source give for “Sgg-3xHA (from UniProt P18431 1-514) (enzyme)” here?
A: Its binding is “binds”.
